# From the supplement of paper PMC12067093, “Discovery and optimisation of a covalent ligand for TRIM25 and its application to targeted protein ubiquitination” (Chemical Science, 2025)
# Sequences of proteins named here, by UniProt entry; tags and fusion partners are left off. A change or cut given only in a name is not applied to a line headed by its entry.
# UniProt Q14683: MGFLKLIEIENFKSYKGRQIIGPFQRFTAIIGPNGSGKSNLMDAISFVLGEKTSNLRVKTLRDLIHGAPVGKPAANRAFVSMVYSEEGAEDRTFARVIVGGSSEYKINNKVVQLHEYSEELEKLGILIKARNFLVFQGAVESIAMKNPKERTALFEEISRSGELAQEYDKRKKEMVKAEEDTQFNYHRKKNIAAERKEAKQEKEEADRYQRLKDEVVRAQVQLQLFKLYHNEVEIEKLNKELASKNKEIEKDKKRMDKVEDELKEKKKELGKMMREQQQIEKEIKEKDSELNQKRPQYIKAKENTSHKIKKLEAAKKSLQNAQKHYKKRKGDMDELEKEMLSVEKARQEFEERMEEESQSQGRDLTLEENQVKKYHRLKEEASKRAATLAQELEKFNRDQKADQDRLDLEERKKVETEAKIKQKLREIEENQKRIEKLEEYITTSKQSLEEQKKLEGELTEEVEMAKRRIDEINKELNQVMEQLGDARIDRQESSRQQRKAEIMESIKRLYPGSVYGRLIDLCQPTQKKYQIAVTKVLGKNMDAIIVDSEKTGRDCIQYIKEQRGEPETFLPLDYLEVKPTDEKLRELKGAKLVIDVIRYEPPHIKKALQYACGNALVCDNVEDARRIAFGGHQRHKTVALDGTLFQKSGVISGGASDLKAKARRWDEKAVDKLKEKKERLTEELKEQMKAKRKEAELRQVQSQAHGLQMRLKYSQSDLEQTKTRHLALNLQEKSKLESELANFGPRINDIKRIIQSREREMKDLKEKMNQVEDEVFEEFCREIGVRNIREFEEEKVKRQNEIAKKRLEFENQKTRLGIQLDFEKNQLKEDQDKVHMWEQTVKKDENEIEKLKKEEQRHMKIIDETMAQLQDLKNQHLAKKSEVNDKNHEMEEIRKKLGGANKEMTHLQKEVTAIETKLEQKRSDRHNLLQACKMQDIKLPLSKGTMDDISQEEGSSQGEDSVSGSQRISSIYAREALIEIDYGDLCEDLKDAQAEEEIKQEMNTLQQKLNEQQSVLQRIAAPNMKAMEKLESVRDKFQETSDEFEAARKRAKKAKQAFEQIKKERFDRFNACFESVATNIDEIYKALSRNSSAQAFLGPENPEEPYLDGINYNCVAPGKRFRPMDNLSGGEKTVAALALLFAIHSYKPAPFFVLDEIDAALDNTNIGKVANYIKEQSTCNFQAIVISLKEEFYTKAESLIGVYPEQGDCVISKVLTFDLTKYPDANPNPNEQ
# UniProt Q9NTJ3, whole entry, looked up: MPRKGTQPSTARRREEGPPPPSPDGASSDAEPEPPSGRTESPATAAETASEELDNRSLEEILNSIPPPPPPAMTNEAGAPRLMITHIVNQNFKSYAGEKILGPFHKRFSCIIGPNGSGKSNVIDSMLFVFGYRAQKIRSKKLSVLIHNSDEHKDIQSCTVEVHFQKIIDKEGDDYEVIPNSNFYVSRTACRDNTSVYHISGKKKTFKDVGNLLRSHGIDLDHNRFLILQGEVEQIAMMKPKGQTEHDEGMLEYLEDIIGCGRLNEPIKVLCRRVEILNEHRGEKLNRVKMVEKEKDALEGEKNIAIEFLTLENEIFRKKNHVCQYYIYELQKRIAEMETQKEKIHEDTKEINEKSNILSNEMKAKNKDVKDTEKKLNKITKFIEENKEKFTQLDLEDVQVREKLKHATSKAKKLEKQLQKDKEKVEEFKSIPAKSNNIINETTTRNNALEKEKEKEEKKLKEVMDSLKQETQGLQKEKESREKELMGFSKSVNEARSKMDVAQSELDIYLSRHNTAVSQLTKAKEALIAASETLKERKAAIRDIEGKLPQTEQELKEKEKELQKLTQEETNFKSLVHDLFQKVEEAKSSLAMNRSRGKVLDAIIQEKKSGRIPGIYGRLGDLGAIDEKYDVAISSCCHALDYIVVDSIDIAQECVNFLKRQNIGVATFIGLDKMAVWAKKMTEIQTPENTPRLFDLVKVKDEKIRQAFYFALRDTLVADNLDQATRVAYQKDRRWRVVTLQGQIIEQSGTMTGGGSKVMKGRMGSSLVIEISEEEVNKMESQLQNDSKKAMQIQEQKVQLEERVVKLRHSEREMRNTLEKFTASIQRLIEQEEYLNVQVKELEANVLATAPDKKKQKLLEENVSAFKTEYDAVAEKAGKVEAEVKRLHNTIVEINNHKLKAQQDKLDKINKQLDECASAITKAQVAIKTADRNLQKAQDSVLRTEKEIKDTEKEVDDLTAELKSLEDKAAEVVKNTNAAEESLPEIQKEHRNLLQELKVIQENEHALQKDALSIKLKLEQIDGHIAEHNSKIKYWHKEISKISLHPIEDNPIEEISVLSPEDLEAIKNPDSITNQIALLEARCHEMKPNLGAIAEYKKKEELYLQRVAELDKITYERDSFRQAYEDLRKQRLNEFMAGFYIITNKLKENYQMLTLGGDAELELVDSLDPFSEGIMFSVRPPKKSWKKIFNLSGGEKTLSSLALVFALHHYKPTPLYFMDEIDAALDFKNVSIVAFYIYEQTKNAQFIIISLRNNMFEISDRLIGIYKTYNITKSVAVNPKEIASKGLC
# UniProt Q7Z7L1: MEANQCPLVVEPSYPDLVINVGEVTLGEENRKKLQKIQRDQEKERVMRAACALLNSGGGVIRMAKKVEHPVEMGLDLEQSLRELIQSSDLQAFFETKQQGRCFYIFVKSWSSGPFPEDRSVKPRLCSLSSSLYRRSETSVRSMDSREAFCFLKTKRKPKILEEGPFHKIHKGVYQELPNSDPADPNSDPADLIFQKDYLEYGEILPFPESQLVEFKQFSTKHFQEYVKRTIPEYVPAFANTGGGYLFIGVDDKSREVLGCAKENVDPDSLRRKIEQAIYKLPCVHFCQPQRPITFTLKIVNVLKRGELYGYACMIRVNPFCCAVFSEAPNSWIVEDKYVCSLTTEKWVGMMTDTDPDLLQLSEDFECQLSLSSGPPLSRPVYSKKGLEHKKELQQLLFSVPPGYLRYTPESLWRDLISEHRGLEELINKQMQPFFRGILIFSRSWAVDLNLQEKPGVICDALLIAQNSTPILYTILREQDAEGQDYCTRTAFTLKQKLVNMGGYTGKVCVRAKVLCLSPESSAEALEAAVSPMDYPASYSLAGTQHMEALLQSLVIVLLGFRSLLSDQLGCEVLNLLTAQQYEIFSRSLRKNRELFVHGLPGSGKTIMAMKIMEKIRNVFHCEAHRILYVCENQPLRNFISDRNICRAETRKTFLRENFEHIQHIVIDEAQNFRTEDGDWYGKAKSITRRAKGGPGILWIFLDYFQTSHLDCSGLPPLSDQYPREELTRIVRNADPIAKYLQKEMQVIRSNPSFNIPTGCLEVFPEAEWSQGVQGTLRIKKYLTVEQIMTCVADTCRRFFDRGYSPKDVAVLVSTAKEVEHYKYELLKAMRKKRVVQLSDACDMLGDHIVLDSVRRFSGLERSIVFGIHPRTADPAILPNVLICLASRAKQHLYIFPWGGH
# UniProt Q9H4L7: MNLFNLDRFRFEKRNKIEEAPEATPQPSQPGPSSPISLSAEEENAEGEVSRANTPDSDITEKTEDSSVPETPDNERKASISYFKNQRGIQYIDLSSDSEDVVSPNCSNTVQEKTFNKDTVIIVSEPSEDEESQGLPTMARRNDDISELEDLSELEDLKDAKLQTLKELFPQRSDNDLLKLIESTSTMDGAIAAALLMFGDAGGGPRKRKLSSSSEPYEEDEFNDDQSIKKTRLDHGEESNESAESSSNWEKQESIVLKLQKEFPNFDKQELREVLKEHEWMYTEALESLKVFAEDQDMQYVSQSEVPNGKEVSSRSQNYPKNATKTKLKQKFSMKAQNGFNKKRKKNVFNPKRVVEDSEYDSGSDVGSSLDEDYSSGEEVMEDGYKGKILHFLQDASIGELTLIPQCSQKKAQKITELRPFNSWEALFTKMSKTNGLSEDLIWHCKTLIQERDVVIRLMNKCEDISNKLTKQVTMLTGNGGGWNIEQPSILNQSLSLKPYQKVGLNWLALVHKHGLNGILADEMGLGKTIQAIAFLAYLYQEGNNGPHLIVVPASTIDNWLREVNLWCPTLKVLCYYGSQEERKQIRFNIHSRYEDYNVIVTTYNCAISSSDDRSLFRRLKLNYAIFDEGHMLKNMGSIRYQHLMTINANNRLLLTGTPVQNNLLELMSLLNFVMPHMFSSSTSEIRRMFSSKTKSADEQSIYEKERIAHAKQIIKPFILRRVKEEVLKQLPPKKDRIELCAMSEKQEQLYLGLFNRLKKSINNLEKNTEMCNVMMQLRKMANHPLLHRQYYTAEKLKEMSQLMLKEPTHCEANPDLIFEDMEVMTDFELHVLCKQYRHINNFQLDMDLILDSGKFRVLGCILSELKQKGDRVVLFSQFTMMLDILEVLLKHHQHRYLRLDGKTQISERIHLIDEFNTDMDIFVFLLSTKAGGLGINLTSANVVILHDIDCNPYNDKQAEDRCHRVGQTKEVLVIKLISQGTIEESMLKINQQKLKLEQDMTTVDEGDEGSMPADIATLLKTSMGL
# UniProt Q9H2G2: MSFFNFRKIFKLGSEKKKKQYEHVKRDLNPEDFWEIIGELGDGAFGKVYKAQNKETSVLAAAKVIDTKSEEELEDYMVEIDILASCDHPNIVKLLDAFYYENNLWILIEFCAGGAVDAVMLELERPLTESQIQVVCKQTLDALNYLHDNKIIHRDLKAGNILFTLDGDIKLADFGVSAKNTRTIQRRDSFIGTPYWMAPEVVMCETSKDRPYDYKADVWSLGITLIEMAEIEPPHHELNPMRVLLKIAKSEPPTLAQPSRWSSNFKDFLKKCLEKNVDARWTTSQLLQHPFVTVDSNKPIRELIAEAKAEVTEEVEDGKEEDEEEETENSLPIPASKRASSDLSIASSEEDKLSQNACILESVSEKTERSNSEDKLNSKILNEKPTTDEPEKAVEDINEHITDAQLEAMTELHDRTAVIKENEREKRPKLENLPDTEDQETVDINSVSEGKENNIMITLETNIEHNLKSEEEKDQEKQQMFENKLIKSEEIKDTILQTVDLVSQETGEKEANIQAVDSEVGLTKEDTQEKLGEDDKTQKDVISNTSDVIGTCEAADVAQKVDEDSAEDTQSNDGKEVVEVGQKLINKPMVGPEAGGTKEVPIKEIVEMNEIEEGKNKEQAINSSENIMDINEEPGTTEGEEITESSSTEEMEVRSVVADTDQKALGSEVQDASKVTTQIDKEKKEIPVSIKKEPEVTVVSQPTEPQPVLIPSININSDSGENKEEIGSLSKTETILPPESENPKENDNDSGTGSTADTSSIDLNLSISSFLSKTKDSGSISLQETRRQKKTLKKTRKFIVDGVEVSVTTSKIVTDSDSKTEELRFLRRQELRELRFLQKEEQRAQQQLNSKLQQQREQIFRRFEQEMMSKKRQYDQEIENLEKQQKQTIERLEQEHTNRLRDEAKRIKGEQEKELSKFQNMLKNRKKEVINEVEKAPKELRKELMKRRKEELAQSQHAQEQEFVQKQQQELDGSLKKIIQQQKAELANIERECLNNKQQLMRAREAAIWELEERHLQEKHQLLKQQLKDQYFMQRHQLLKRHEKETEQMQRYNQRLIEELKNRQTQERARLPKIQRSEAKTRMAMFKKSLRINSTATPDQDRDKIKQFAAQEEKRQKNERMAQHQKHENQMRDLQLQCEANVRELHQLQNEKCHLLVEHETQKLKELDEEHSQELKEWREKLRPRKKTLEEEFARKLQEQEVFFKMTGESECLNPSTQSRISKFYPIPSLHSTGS
# UniProt P17405: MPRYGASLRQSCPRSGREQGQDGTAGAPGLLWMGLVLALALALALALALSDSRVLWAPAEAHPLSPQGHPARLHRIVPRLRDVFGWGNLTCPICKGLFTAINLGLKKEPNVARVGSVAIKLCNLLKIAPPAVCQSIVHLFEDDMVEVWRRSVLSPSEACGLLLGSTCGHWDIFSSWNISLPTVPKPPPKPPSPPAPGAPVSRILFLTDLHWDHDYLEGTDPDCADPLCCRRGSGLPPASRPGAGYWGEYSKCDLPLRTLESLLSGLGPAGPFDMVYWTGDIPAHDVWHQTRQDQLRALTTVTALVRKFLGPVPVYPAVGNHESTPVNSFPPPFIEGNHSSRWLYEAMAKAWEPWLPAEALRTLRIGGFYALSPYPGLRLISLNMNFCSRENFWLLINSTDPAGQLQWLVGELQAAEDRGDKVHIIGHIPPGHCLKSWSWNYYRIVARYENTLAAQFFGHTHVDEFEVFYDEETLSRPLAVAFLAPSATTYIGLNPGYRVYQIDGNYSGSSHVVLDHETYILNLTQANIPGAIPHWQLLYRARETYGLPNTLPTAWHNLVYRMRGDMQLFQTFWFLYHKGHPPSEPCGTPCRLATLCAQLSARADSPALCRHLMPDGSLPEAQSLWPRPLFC
# Some of the results follow.
# Compound: CC1Cc2ccccc2N1C(=O)C1CCCN(C1)C(=O)CCl (mixture of isomers) [TRIM25 ligand 11 (diastereomer mixture)]
# Assay: probe-labelled cysteine peptide fold change vs DMSO (competition) (log2 fold change); higher = less target engagement (more negative = stronger competition)
# Conditions: THP-1, incubation time: 4 h
# 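Further: competitive chemoproteomic profiling in live THP-1 cells with an iodoacetamide desthiobiotin (IA-DTB) probe, comparing probe-labelled peptide intensities in compound-treated cells against DMSO-treated controls.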
Target,probe-labelled cysteine peptide fold change (10 µM),probe-labelled cysteine peptide fold change (50 µM)
SNRNP200_O75643_1706_CVIMCQGSKK (UniProt O75643),-0.483,-0.298
SMC1A_Q14683_987_EALIEIDYGDLCEDLK (UniProt Q14683),0.0851,-0.0807
SMC4_Q9NTJ3_110_RFSCIIGPNGSGK (UniProt Q9NTJ3),-0.0655,0.163
SLFN11_Q7Z7L1_884_TADPAILPNVLICLASR (UniProt Q7Z7L1),-0.233,-0.208
SMCHD1_A6NHR9_1967_CNDSLR (UniProt A6NHR9),-0.121,-0.161
SLC44A1_Q8WWI5_98_KYVFFLDPCNLDLINR (UniProt Q8WWI5),-0.0959,0.0613
SMARCA2_P51531_399_QLRQEVVACMR (UniProt P51531),-0.116,-0.0635
SLC27A3_Q5K4L6_256_RGPLLHCLR (UniProt Q5K4L6),-0.11,-0.0358
SMC6_Q96SB8_1013_CLDEFDVYMDMVNRR (UniProt Q96SB8),-0.007,0.139
SMC1A_Q14683_619_ALQYACGNALVCDNVEDARR (UniProt Q14683),0.139,-0.0848
SMYD5_Q6GMV2_70_ACDHCLR (UniProt Q6GMV2),-0.0677,0.0331
SMG7_Q92540_537_NLSNNCDTGEKPVVTFK (UniProt Q92540),-0.036,-0.226
SNAPC1_Q16533_11_GTPPGLQTDCEALLSR (UniProt Q16533),-0.19,0.139
SMARCAD1_Q9H4L7_741_IELCAMSEK (UniProt Q9H4L7),-0.0382,0.0471
SLC4A2_P04920_1215_CLDANEAEPVFDER (UniProt P04920),0.297,-0.0524
SMCHD1_A6NHR9_1018_IEIPSCK (UniProt A6NHR9),-0.00436,-0.0233
SMU1_Q2TAY7_383_TTECSNTFK (UniProt Q2TAY7),0.0113,0.106
SLC4A1AP_Q9BWU0_399_ALQGFFDREGEELEYEFDEQGHSTWLCR (UniProt Q9BWU0),0.0606,0.0595
SLK_Q9H2G2_552_DVISNTSDVIGTCEAADVAQK (UniProt Q9H2G2),0.0783,-0.072
SMAP1_Q8IYB5_85_SVNLDQWTAEQIQCMQDMGNTK (UniProt Q8IYB5),0.0809,0.0618

Target,probe-labelled cysteine peptide fold change (10 µM),probe-labelled cysteine peptide fold change (50 µM)
SMPD1_P17405_229_ILFLTDLHWDHDYLEGTDPDCADPLCCR (UniProt P17405),0.202,0.182
SMARCC1_Q92922_119_AGGALCHILGAAYK (UniProt Q92922),-0.0478,0.191
SMARCA2_P51531_399_QEVVACMR (UniProt P51531),0.112,0.2
SMARCA4_P51532_423_QEVVVCMR (UniProt P51532),0.0983,0.11
SMC3_Q9UQE7_972_LEQCNTELK (UniProt Q9UQE7),0.0172,0.0334
SMCHD1_A6NHR9_474_RPIFECFWNGR (UniProt A6NHR9),-0.00857,0.0994
SNAP47_Q5SQN1_369_SCSVWHAASGLMGR (UniProt Q5SQN1),-0.0781,-0.228
SMU1_Q2TAY7_312_GVTCLSFSK (UniProt Q2TAY7),0.0362,0.219
SMARCB1_Q12824_350_NTGDADQWCPLLETLTDAEMEK (UniProt Q12824),-0.0899,-0.155
SNRNP200_O75643_1702_CVIMCQGSKK (UniProt O75643),-0.266,-0.313
SNRNP200_O75643_502_AALETDENLLLCAPTGAGK (UniProt O75643),0.347,0.165
SMPD4_Q9NXE4_221_TSDCAYFILVDR (UniProt Q9NXE4),0.14,0.266
SLK_Q9H2G2_204_DSFIGTPYWMAPEVVMCETSK (UniProt Q9H2G2),-0.142,-0.0938
SMARCAD1_Q9H4L7_462_CEDISNK (UniProt Q9H4L7),-0.00579,-0.0217
SLK_Q9H2G2_993_AELANIERECLNNK (UniProt Q9H2G2),-0.123,-0.0676
SMC4_Q9NTJ3_110_FSCIIGPNGSGK (UniProt Q9NTJ3),0.0672,0.25
SMARCA5_O60264_1001_CNTLITLIERENMELEEK (UniProt O60264),-0.233,-0.0556
SMAD3_P84022_121_DEVCVNPYHYQR (UniProt P84022),-0.0651,0.139
SMCHD1_A6NHR9_1751_IAHLAQIEDDRAAMVISWHLASDMDCVVTLTTDAAR (UniProt A6NHR9),0.0608,0.115

# Two records drawn at random from those above, as already listed:
Target,probe-labelled cysteine peptide fold change (10 µM),probe-labelled cysteine peptide fold change (50 µM)
SMC6_Q96SB8_1013_CLDEFDVYMDMVNRR (UniProt Q96SB8),-0.007,0.139
SLFN11_Q7Z7L1_884_TADPAILPNVLICLASR (UniProt Q7Z7L1),-0.233,-0.208
